From publication PMC6138936
Results are given in words; binding and its absence hold for the method and conditions named. In cells and extracts the contact can be indirect. Some results given as binding are weak or reduced against the parent protein; the word gives no strength.

The chains behind the UniProt entries cited, without tags or fusion partners.
UniProt Q07955: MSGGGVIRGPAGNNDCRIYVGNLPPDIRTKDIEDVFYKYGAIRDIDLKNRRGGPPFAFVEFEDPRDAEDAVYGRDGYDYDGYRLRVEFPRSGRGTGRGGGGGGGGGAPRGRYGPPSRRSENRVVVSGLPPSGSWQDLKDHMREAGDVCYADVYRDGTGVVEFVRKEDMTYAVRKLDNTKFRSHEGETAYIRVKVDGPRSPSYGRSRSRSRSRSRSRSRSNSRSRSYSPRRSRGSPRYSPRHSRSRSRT
UniProt O75475: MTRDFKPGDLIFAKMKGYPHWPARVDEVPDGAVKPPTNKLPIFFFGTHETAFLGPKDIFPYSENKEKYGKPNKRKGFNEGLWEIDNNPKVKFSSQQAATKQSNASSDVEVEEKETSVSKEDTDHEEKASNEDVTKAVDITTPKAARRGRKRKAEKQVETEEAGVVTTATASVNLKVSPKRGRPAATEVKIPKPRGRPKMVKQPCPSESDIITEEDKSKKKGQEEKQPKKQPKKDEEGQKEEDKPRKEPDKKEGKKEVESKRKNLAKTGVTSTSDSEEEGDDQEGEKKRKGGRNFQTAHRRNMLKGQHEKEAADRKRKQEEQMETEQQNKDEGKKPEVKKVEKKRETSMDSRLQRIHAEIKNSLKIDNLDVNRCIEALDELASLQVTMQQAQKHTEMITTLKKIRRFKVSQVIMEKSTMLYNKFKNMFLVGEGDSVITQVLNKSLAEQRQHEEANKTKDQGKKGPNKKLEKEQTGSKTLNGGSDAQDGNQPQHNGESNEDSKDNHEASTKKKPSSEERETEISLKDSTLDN

Molecular target: SRSF1 (human (endogenous in H1, MSC and IMR90 cells)) (UniProt Q07955)
Test: co-IP; endogenous proteins; 200 ug pre-cleared lysate (20 mM Tris HCl pH 8, 137 mM NaCl, 1% Nonidet P-40, 2 mM EDTA) of H1, MSC and IMR90 cells precipitated with anti-SRSF1 antibody and protein G magnetic beads at 4 °C; PSIP1 detected by western blot; beads without antibody as IP control

## PSIP1 protein (also known as LEDGF), p75 isoform (from UniProt O75475 1-530)
  binding: binds
